# PubChem BioAssay AID1347423 (Functional Genomics Laboratory (NCATS/FGL), 2020)
# The campaign covered roughly 52,000 sequences. About 210 (0.4%) were called active.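 How the source made its calls: active means gene whose silencing raises cell survival under the drug, median off-target-corrected z-score across its silencing RNAs 2 or more; inactive means the rest.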 The list shows a part of the results.
# Test: Resistance to Poly (ADP-Ribose) Polymerase inhibitor: Gene Identification via Genome-wide siRNA Screen
# Details: mouse BRCA2 R2336H ES cells, olaparib, CellTiter-Glo viability; stronger effect = higher value
# How it was run: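 Mouse BRCA2 R2336H ES cells were reverse-transfected with siRNA (20 nM final), treated at 48 h with 500 nM olaparib, and read by CellTiter-Glo after 72 h. Scores: MAD-based z per siRNA, median per gene, seed off-target correction.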
row,Sequence,z-score
1,GGAGAGGACUGUAAAGUGCTT against C130034I18Rik,inactive: 0.317
2,CGCAUCUUAUCUUUCCUAATT against Ngly1,inactive: 0.723
3,CCUAAAAAGAGGAAAAGGGTT against Psg29,inactive: 0.664
4,GGAAAGCCCUCCGAAGUUUTT against Wsb2,inactive: -0.469
5,GGCAAUUUCAGACAAGUAUTT against Tcfcp2l2,inactive: -0.37
6,CCAGAAACUAGCCUACUACTT against Vgll2,inactive: 0.636
7,CGUGUGUUUUACCCUAAAATT against 6.72E+21,inactive: 1.3
8,GGAAUCCAACCUCUGUGAUTT against Cdca2,inactive: -1.08
9,GGUUCAAAGGUGAUGGUGUTT against Dab2,inactive: 0.185
10,GGAAAUAAAACAGAUUUGGTT against Atpaf1,inactive: 1.42
11,GGUGAUCAUCCAUGAAUUCTT against Chaf1a,inactive: -1.71
12,GCUCACUUGUAGUGCUUUATT against Arf2,inactive: 0.000159
13,GAGUUGUACUCUUCACUAUTT against Olfr497,inactive: 1.77
14,GGAAUGUAAGAACCCUUGCTT against Adam19,inactive: 0.854
15,GGGUAACAUCUUCAGAUUUTT against Gpr109b,inactive: -0.494
16,GCAUCCUCUCACUCUCAAUTT against Grin2a,inactive: 2.14
17,CCUGUCUUUCUUUGAUCAATT against Tm4sf3,inactive: 0.417
18,GGAUAUUCAUGUUUCAUUGTT against Vipr2,inactive: -0.132
19,CGUGACAUGCACGACUUCUTT against Tac2,inactive: -0.83
20,GCCCUUUUACGGCAACAGATT against 5730419I09Rik,inactive: -0.148
21,GGCUGAUCUCUUUUGCCAGTT against Reg2,inactive: 0.282
22,GGACAACAAACUUUUCCUGTT against Ppgb,inactive: -0.277
23,CCAACUCGGCUGUUUUUUATT against F11r,inactive: 0.274

# Reformatted as tab-separated lines: part of the list above.
row	Sequence	z-score
1	GGAGAGGACUGUAAAGUGCTT against C130034I18Rik	inactive: 0.317
2	CGCAUCUUAUCUUUCCUAATT against Ngly1	inactive: 0.723
3	CCUAAAAAGAGGAAAAGGGTT against Psg29	inactive: 0.664
6	CCAGAAACUAGCCUACUACTT against Vgll2	inactive: 0.636
7	CGUGUGUUUUACCCUAAAATT against 6.72E+21	inactive: 1.3
8	GGAAUCCAACCUCUGUGAUTT against Cdca2	inactive: -1.08
10	GGAAAUAAAACAGAUUUGGTT against Atpaf1	inactive: 1.42
11	GGUGAUCAUCCAUGAAUUCTT against Chaf1a	inactive: -1.71
12	GCUCACUUGUAGUGCUUUATT against Arf2	inactive: 0.000159
13	GAGUUGUACUCUUCACUAUTT against Olfr497	inactive: 1.77
14	GGAAUGUAAGAACCCUUGCTT against Adam19	inactive: 0.854
15	GGGUAACAUCUUCAGAUUUTT against Gpr109b	inactive: -0.494
16	GCAUCCUCUCACUCUCAAUTT against Grin2a	inactive: 2.14
17	CCUGUCUUUCUUUGAUCAATT against Tm4sf3	inactive: 0.417
20	GCCCUUUUACGGCAACAGATT against 5730419I09Rik	inactive: -0.148
23	CCAACUCGGCUGUUUUUUATT against F11r	inactive: 0.274

# Remaining list, next part:

row,Sequence,z-score
1,GCCUAAAAAAUCUCUGUGATT against Zswim3,inactive: -1.39
2,GGGAGGGACUUUUAAACUUTT against Ube2n,inactive: -1.28
3,GGAAACCUCAUCCAUUCCCTT against Ei24,inactive: 1.01
4,GGAACAAACGUGACUGUCATT against Rdh14,inactive: -1.52
5,CGCUGGUGGUAUAACCAAGTT against Wfdc6,inactive: -1.84
6,GGACAAGGCCCUCAUGAUUTT against Nek8,inactive: -0.254
7,CCAGGAAGAGAACUAUAAUTT against E130009J12Rik,inactive: 1.23
8,GGCUAGAUUUCUGAUUCCCTT against F630022B06Rik,inactive: 1.2
9,GAAUUGUCUUACUUGGAAATT against Ian1,inactive: 0.519
10,GGCUACCUUUGUUAAAUCUTT against Rab10,inactive: 0.497
11,GGAGUCGAAUCUUCUCUAATT against 2310066I18Rik,inactive: -0.107
12,GGUGGUGAUAUCAAGAAUCTT against Sfxn3,inactive: -0.425
13,CGGUAAAGUGAAUCAUAGATT against Tas2r105,inactive: 0.51
14,GCUUGACGCGAACUUACCATT against Endog,inactive: 0.821
15,CCCUUCUCACUAACAUACATT against Dach1,inactive: 0.397
16,GGCAAGAUGAAUUAAAAUGTT against AW146020,inactive: 2.03
17,GGAAAUGCUGCCAUUGUUATT against Aldh3a2,inactive: -0.998
18,GGGUGAUCUGUAGUAUUUUTT against Olfr574,inactive: -0.987
19,CGUGUGGAGUAAACACCAATT against Herc3,inactive: 0.183
20,CCCAGUGAUUAAGGCUUUCTT against BC010801,inactive: -1.38
21,CCCUAUCAUCAGUUUCCGGTT against B230363K08Rik,inactive: -1.19
22,CGAUGUCAUGCUCAGCGCATT against Nlgn2,inactive: 0.611
23,GGAGCUUGAAGCAUCCUAGTT against Bdkrb2,inactive: 2.25

row,Sequence,z-score
1,GGUACGGUUAAUAGCCACGTT against Snai2,inactive: 1.05
2,GCAUUACCAAAAGCAGUCUTT against Lyn,inactive: -0.0659
3,GCGGUUGAUGUCCUGUGUUTT against Adra1b,inactive: 0.499
4,GCAAACUAUUUGUCUGGUGTT against Ripk1,inactive: -0.277
5,GGCUAUUGUAUGAAAUUGUTT against BC050092,inactive: 0.435
6,GGUGACCUGUAAAUGCAACTT against Fln29,inactive: 0.634
7,GCCAUGUUAACUGCCUCAATT against Bmyc,inactive: 0.0127
8,GGUAAAAGGUGCCUUGAGATT against Olfr446,inactive: 0.807
9,GGAGAAAAGGACUGAAGGCTT against Ralbp1,inactive: -0.101
10,GCUCCAACGUAAGUGGGAATT against 1700123L14Rik,inactive: -0.0343
11,GGACAAUCCAUAAGUUAAATT against A930041I02Rik,inactive: -0.369
12,CCCAUACAGUGUGGUAUUUTT against 5730472N09Rik,inactive: -0.508
13,GCGACAGUCCAACUUUUAATT against Allc,inactive: 0.941
14,GCACUCGGAUCAAUGCACATT against G630055P03Rik,inactive: -0.63
15,GGGUUAAGUACAGAAGAUCTT against Cask,inactive: -1.62
16,GCACAAUUAUGAGAGUGCATT against Grin1,inactive: -0.652
17,GGUUUUGGAGAGAAUUGCCTT against Cog2,inactive: -2.06
18,GGCCCACAGUUUGUGACUGTT against D3Wsu161e,inactive: -0.826
19,UCUCCUUCAUUCCAUGUAUTT against Olfr441,inactive: -1.04
20,GGCACAGAAAACAGUCAAATT against 1190005F20Rik,inactive: -0.572
21,GGACUUAUCGGUUAUCUUUTT against Nap1l2,inactive: 0.654
